# Data: PMC2816717, “Active Fragments from Pro- and Antiapoptotic BCL-2 Proteins Have Distinct Membrane Behavior Reflecting Their Functional Divergence” (PLoS ONE, 2010)
# What was measured:
# [1] = Brewster Angle Microscopy of peptide-monolayer complexes, lipid mixture not singled out; format: physicochemical; conditions: BAM, calculated from reflectance values
# [2] = Brewster Angle Microscopy of peptide-monolayer complexes; format: physicochemical; conditions: BAM, POPC/DOPE mixture, at πmax
sequence,measurement,setting,value
"ELIRTIMGWTLDFLRERLLVWIQD [BAX-α6, second helix (α6) of the central hairpin of BAX]",difference in height between dark area of the holes and peripheral rims,[1],1.07±0.19 nm
same,difference in height between rims and surrounding monolayer,[1],0.49±0.2 nm
NWGRVVALFYFASKLVLKALSTKVPELIR [BAX-α5M],height of the condensed domains,[2],1.99±0.24 nm
NWGVVKALFYFASVLRLKALSTKVPELIR [BAX-α5MS],height of the condensed domains,[2],1.04±0.13 nm
"RDGVNWGRIVAFFSFGGALSVESVDKEMQVLVSR [BCLX-α5L, long version of helix α5 of BCL-xL]",height of the condensed domains,[2],1.32±0.16 nm
"WGRVVALFYFASKLVLKALSTK [BAX-α5S, short peptide of the first helix (α5) of the central hairpin of BAX]",height of the condensed domains,[2],2.54±0.31 nm
